Our source for the IC50 values is article PMC4154712 (Journal of medicinal chemistry, 2014).

By IC50 is commonly meant the point on the concentration scale where inhibition reaches its midpoint.

The test system of assay [1] is HeLa (human cervical carcinoma) cells. The following applies: read-out: IC50 ± SD HeLA; MTT method; 48 h; ref 10b; cited from earlier work. For orientation: Tetrazolium dyes change colour on reduction, which living cells bring about.
Assay [2] has as its system HCT116 (human colon carcinoma cells). Particulars: read-out: IC50 ± SD HCT116; ref 10b; cited from earlier work.
Assay [3] has as its system A549 (human lung carcinoma) cells. The following applies: read-out: IC50 ± SD A549; MTT method; 48 h; ref 10b; cited from earlier work.
The test system of assay [4] is MCF-7 human breast carcinoma cells. Put plainly: cells. The following applies: MCF7, 96 h, read-out: MCF-7 IC50 ± SD.
Assay [5] deals with HT29 (human colon adenocarcinoma) cells. Particulars: read-out: IC50 ± SD HT-29; MTT method; 48 h; ref 10b; cited from earlier work.

Turning to `COc1cc2c(c(OC)c1OC)-c1ccc(OC)c(=O)cc1[C@@H](NC(C)=O)CC2` [Compound 1, Colchicine], the IC50 in assay [1] is 28 ± 9 nM; in assay [2], 20 ± 2 nM; in assay [3] it was 20 ± 8 nM; in assay [4], 5 ± 1 nM; in assay [5] it was 18 ± 4 nM.
